Reference: article PMC9230030 (Pharmaceuticals, 2022)
HELM strings list residues between dots; [ac] is acetyl, [am] amide, other brackets name non-standard units.

Test: general procedure: Fmoc solid-phase peptide synthesis
Details: whole synthesis

For PEPTIDE1{P.V.R.S.S.N.C.A}$$$$V2.0, the “crude HPLC purity” value (220 nm) was 89% and the crude yield (overall) was ~30%.
